No constants are given. Whether binding was seen depends on the method and setting. In cells and extracts the contact can be indirect. Some results given as binding are weak or reduced against the parent protein; the word gives no strength.
Biological target: DHX9 (endogenous) (human (endogenous in GM06990 lymphoblastoid and HEK293T cells)), Q08211
Test: co-IP
Settings: remark: other sources report otherwise

B1: Top3β, O95985 1-862 (enzyme)
chain: MKTVLMVAEKPSLAQSIAKILSRGSLSSHKGLNGACSVHEYTGTFAGQPVRFKMTSVCGHVMTLDFLGKYNKWDKVDPAELFSQAPTEKKEANPKLNMVKFLQVEGRGCDYIVLWLDCDKEGENICFEVLDAVLPVMNKAHGGEKTVFRARFSSITDTDICNAMACLGEPDHNEALSVDARQELDLRIGCAFTRFQTKYFQGKYGDLDSSLISFGPCQTPTLGFCVERHDKIQSFKPETYWVLQAKVNTDKDRSLLLDWDRVRVFDREIAQMFLNMTKLEKEAQVEATSRKEKAKQRPLALNTVEMLRVASSSLGMGPQHAMQTAERLYTQGYISYPRTETTHYPENFDLKGSLRQQANHPYWADTVKRLLAEGINRPRKGHDAGDHPPITPMKSATEAELGGDAWRLYEYITRHFIATVSHDCKYLQSTISFRIGPELFTCSGKTVLSPGFTEVMPWQSVPLEESLPTCQRGDAFPVGEVKMLEKQTNPPDYLTEAELITLMEKHGIGTDASIPVHINNICQRNYVTVESGRRLKPTNLGIVLVHGYYKIDAELVLPTIRSAVEKQLNLIAQGKADYRQVLGHTLDVFKRKFHYFVDSIAGMDELMEVSFSPLAATGKPLSRCGKCHRFMKYIQAKPSRLHCSHCDETYTLPQNGTIKLYKELRCPLDDFELVLWSSGSRGKSYPLCPYCYNHPPFRDMKKGMGCNECTHPSCQHSLSMLGIGQCVECESGVLVLDPTSGPKWKVACNKCNVVAHCFENAHRVRVSADTCSVCEAALLDVDFNKAKSPLPGDETQHMGCVFCDPVFQELVELKHAASCHPMHRGGPGRRQGRGRGRARRPPGKPNPRRPKDKMSALAAYFV
Q: How did the binding turn out when B1 was run?
A: The binding was “binds”.

From publication doi:10.1101/2022.07.10.499475
